Laboratory results taken from PMC8844925.
For at least one entry, the source does not settle the construct or the ends of the probe. Negatives hold for the conditions tested. Where a protein sequence is shown, tags need not be part of it. The comparison behind a weaker result is the experiment's own reference, which may not be listed here.

Target: T1, His6-MrpC (UniProt Q1D244)
T1 sequence (looked up, limits assumed): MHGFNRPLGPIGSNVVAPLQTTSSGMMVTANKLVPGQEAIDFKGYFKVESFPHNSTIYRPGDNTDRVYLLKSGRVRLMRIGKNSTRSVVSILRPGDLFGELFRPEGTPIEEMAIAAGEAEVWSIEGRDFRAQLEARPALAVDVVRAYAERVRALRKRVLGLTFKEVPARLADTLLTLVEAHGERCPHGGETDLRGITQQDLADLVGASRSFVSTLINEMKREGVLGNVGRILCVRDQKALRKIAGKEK
Test: EMSA
Conditions: 10 mM Tris pH 8.0, 50 mM KCl, 1 mM DTT, 10 ug/mL BSA, 10% glycerol, 0.5 ug herring sperm DNA in 10 ul, 15 min at 20 C, 5% PAGE in 0.5x TBE, recombinant protein, protein details: His6, label: Hex, probe letters rebuilt from the primers and the genome

[1] = 10 nM probe, 1.0 uM MrpC, only one shifted band (WT two)

## GCACCACTCCGCTTCATTCGGCTGCTGCGAAATGGCAGGCCGAAAGTCTCGGGTGCCACGCCCTTCCGTGTGCTCCCAACGCCCCTGCGCCCCACGCGCACCCGCCGCCGCCCGGTCCTGCAAGCACACCCCAACGCCCACAACCTTCACCCGAGACCTCCGGCTGCCAAGCCTGTCAGGCTCCGCGAGACGAGGCCTTTCCCCGTCATCCGTGAGCATGGTGCGGGAGCAAGCACCATGCCCCGCGGTGGGGGAGGGCAGTCAGAGTGTTTCCGGGCGGTTGCACACCCTCTGCGTCGCCCTGTTGTACAGGGTCGGAAGACGTTGCAGCGCGCTGAGGGGCAAACCGGTAGATATTCCCGTGCGCGGGCGATTCCTCGGTGGCCGCGCGACGGGTCGCTAGCGTCGGGTGCTGAACTGCATGCGGCGGCCGCCCATGGGGGGCATGACCGGCGGCGGA (double strand) [PdmxB BS3*]
6 nM probe, bound as WT
  binding result: binds

## GCACCACTCCGCTTCATTCGGCTGCTGCGAAATGGCAGGCCGAAAGTCTCGGGTGCCACGCCCTTCCGTGTGCTCCCAACGCCCCTGCGCCCCACGCGCACCCGCCGCCGCCCGGTCCTGCAAGCACACCCCAACGCCCACAACCTTCACCCGAGACCTCCGGCTGCCAAGCCTGTCAGGCTCCGCGAGACGAGGCCTTTCCCCGTCATCCGTGAGCATGGTGCGGGAGCAAGCACCATGCCCCGCGGTGGGGGAGGGCAGTCAGAGTGTTTCCGGGCGGTTGCACACCCTCTGCGTCGCCCTGTTGTACAGGGTCGGAAGACGTTGCAGCGCGCTGAGGGGCAAACCGGTAGATATTCCCGTGCGCGGGCGGACGCTCGGTGGCCGCGCGACGGGTCGCTAGCGTCGGGTGCTGAACTGCATGCGGCGGCCGCCCATGGGGGGCATGACCGGCGGCGGA (double strand) [PdmxB WT]
6 nM probe, one shifted band
  binding result: binds

## GCACCACTCCGCTTCATTCGGCTGCTGCGAAATGGCAGGCCGAAAGTCTCGGGTGCCACGCCCTTCCGTGTGCTCCCAACGCCCCTGCGCCCCACGCGCACCCGCCGCCGCCCGGTCCTGCAAGCACACCCCAACGCCCACAACCTTCACCCGAGACCTCCGGCTGCCAAGCCTGTCAGGCTCCGCGAGACGAGGCCTTTCCCCGTCATCCGTGAGCATGGTGCGGGAGCAAGCACCATGCCCCGCGGTGGGGGAGGGCAGTCAGAGTGTTTCCGGGCGGTTGCACACCCTCTGCGTCGCCCTGTTGTACAGGGTCGGAAGACGTTGCAGCGCGCTGAGGGGCAAACCGGTAGATATTCCCGTGCGCGGGCGGACGCTCGGTGGCCGCGCGACGGGTCGCTAGGAATGGGTGCTGAACTGCATGCGGCGGCCGCCCATGGGGGGCATGACCGGCGGCGGA (double strand) [PdmxB BS4*]
6 nM probe
  binding result: no binding

## GCACCACTCCGCTTCATTCGGCTGCTGCGAAATGGCAGGCCGAAAGTCTCGGGTGCCACGCCCTTCCGTGTGCTCCCAACGCCCCTGCGCCCCACGCGCACCCGCCGCCGCCCGGTCCTGCAAGCCTTACCCAACGCCCACAACCTTCACCCGAGACCTCCGGCTGCCAAGCCTGTCAGGCTCCGCGAGACGAGGCCTTTCCCCGTCATCCGTGAGCATGGTGCGGGAGCAAGCACCATGCCCCGCGGTGGGGGAGGGCAGTCAGAGTGTTTCCGGGCGGTTGCACACCCTCTGCGTCGCCCTGTTGTACAGGGTCGGAAGACGTTGCAGCGCGCTGAGGGGCAAACCGGTAGATATTCCCGTGCGCGGGCGGACGCTCGGTGGCCGCGCGACGGGTCGCTAGCGTCGGGTGCTGAACTGCATGCGGCGGCCGCCCATGGGGGGCATGACCGGCGGCGGA (double strand) [PdmxB BS1*]
6 nM probe, bound as WT
  binding result: binds

## GCACCACTCCGCTTCATTCGGCTGCTGCGAAATGGCAGGCCGAAAGTCTCGGGTGCCACGCCCTTCCTAAGGCTCCCAACGCCCCTGCGCCCCACGCGCACCCGCCGCCGCCCGGTCCTGCAAGCACACCCCAACGCCCACAACCTTCACCCGAGACCTCCGGCTGCCAAGCCTGTCAGGCTCCGCGAGACGAGGCCTTTCCCCGTCATCCGTGAGCATGGTGCGGGAGCAAGCACCATGCCCCGCGGTGGGGGAGGGCAGTCAGAGTGTTTCCGGGCGGTTGCACACCCTCTGCGTCGCCCTGTTGTACAGGGTCGGAAGACGTTGCAGCGCGCTGAGGGGCAAACCGGTAGATATTCCCGTGCGCGGGCGGACGCTCGGTGGCCGCGCGACGGGTCGCTAGCGTCGGGTGCTGAACTGCATGCGGCGGCCGCCCATGGGGGGCATGACCGGCGGCGGA (double strand) [PdmxB BS2*]
6 nM probe, bound as WT
  binding result: binds

## GGCGTGGCTCCTCCAGGGGTTACTGCCACTGGCCCTTCTTCACTTCGAGTTTGAGGCGCTCGGACACCAGCTCGAAGTGCCTGGGCGCGCTGGGCTCGGACGGACCCGCGGGGCCCACCGCGCGCACCGTCCACCGGTAGCTTCCCGCGGGTAGCACTGGCAGCTTCGCTTCCAGGCTGGTGACTGTCTGCGTGAAATTCGCGCGTTGCTCCTGCGCGCGCGACACTTCCACTTCATAACGTTCCGCGCCCCGTACAGCCTCCCAGGTCAGCTTCACCGGGCCCAGGTGCCCGTCCCGGTCGGGGCGTCGCTTCA (double strand) [PpmxA BS1*]
[1]
  binding result: binds more weakly

## GGCGTGGCTCCTCCAGGGGTTACTGCCACTGGCCCTTCTTCACTTCGAGTTTGAGGCGCTCGGACACCAGCTCGAAGTGCCTGGGCGCGCTGGGCTCGGACGGACCCGCGGGGCCCACCGCGCGCACCGTCCACCGGTAGCTTCCCGCGGGTAGCACTGGCAGCTTCGCTTCCAGGCTGGTGACTGTCTGCGTGAAATTCGCGCGTTGCTCCTGCGCGCGCGACACTTCCACTTCATATTCTTCCGCGCCCCGTACAGCCTCCCAGGTCAGCTTCACCGGGCCCAGGTGCCCGTCCCGGTCGGGGCGTCGCTTCA (double strand) [PpmxA BS1*/BS2*]
10 nM probe, 1.0 uM MrpC
  binding result: no binding

## GGCGTGGCTCCTCCAGGGGTTACTGCCACTGGCCCTTCTTCACTTCGAGTTTGAGGCGCTCGGACACCAGCTCGAAGTGCCTGGGCGCGCTGGGCTCGGACGGACCCGCGGGGCCCACCGCGCGCACCGTCCACCGGTAGCTTCCCGCGGGTAGCACTGGCAGCTTCGCTTCCAGGCTGGTGACTGTCTGCGTGAAGACGGCGCGTTGCTCCTGCGCGCGCGACACTTCCACTTCATAACGTTCCGCGCCCCGTACAGCCTCCCAGGTCAGCTTCACCGGGCCCAGGTGCCCGTCCCGGTCGGGGCGTCGCTTCA (double strand) [PpmxA WT]
10 nM probe, one shifted band at 0.1 uM MrpC, two at 0.5-2.0 uM
  binding result: binds

## GGCGTGGCTCCTCCAGGGGTTACTGCCACTGGCCCTTCTTCACTTCGAGTTTGAGGCGCTCGGACACCAGCTCGAAGTGCCTGGGCGCGCTGGGCTCGGACGGACCCGCGGGGCCCACCGCGCGCACCGTCCACCGGTAGCTTCCCGCGGGTAGCACTGGCAGCTTCGCTTCCAGGCTGGTGACTGTCTGCGTGAAGACGGCGCGTTGCTCCTGCGCGCGCGACACTTCCACTTCATAACGTTCCGCGCCCCGTACAGCCTCCCAGGTCAGCTTCACCGGGCCCAGGTGCCGAATCCGGTCGGGGCGTCGCTTCA (double strand) [PpmxA BS3*]
10 nM probe, 1.0 uM MrpC, behaved as WT (two bands)
  binding result: binds

## GGCGTGGCTCCTCCAGGGGTTACTGCCACTGGCCCTTCTTCACTTCGAGTTTGAGGCGCTCGGACACCAGCTCGAAGTGCCTGGGCGCGCTGGGCTCGGACGGACCCGCGGGGCCCACCGCGCGCACCGTCCACCGGTAGCTTCCCGCGGGTAGCACTGGCAGCTTCGCTTCCAGGCTGGTGACTGTCTGCGTGAAGACGGCGCGTTGCTCCTGCGCGCGCGACACTTCCACTTCATATTCTTCCGCGCCCCGTACAGCCTCCCAGGTCAGCTTCACCGGGCCCAGGTGCCCGTCCCGGTCGGGGCGTCGCTTCA (double strand) [PpmxA BS2*]
[1]
  binding result: binds more weakly
